Laboratory results taken from patent US20060100188A1, “Treatment methods” (priority 2004, published 2006).
At least one compound was matched to its structure with a doubt left.

Tests used:
[1] = test system: DAOY human glioma cells (high MGMT level); test: Colony formation assay, DAOY cells; format: cell-based; conditions: 4-day cycle, total TMZ levels of 186, 373, and 746 μg
Method: (§1) As detailed below, DAOY human glioma cells (high MGMT level), A375 human melanoma cells (high MGMT level), and LOX human melanoma cells (low MGMT level) in in vitro colony formation assays were treated with different dosing schedules of TMZ. In brief, sub-confluent plates containing cells (DAOY, A375, or LOX) were trypsinized, then rinsed and suspended in appropriate culture medium before seeding in 6-well plates. Cells were incubated for 18-24 hours at 37° C. to allow cells to attach. Graded concentrations of TMZ or equivalent volumes of diluents were added in triplicate. Each pulse of TMZ lasted for 24 hours. For example, cells receiving continuous daily dosing of TMZ were treated with TMZ-containing medium every 24 hours throughout the cycle. Following the last pulse of TMZ in a cycle, TMZ-containing medium was removed and replaced with fresh medium without TMZ for the rest of the incubation period. Resulting colonies were stained with Crystal Violet solution and quantified using ImagePro plus software (Empire Imaging Systems, Inc. Asbury, N.J.).

[2] = test system: A375 human melanoma xenograft tumors; test: A375 human melanoma xenograft tumor model; format: in vivo, nude mice; conditions: two higher dose levels of intermittent schedule (Day 1, 4, 7, 10, 13) and highest dose level of Day 1-5 schedule
Method: (§2) In brief, female athymic nude mice or female SCID mice (4-6 week old) from Charles River Laboratories were maintained in a VAF-barrier facility. Animal procedures were performed in accordance with the rules set forth in the N.I.H. guide for the care and use of laboratory animals.
(§3) DAOY human glioma cells (5×10^6), LOX human melanoma cells (5×10^5), and A375 human melanoma cells (5×10^6) were inoculated subcutaneously in the right flank of the animal (LOX in SCID mice; DAOY and A375 in nude mice). To facilitate in vivo growth, Matrigel was mixed with DAOY and A375 cells (50%) before inoculation. When tumor volumes were approximately 100 mm^3, animals were randomized and grouped (n=10). Tumor volumes and body weight were measured twice weekly using Labcat™ computer application (Innovative Programing Associates, N.J.). Tumor volumes were calculated by the formula (W×L×H)×π×⅙.
(§4) TMZ was administered by intraperitoneal injections with 20% HPβCD (containing 1% DMSO) as vehicle. Mice bearing xenograft tumors of DAOY human glioma cells, a high MGMT level cell line, were treated with one of three different dosing schedules. In a 15-day cycle, under same total dose levels, mice received one of the following TMZ treatments: (i) day 1 through day 15; (ii) day 1 through day 5; or (iii) intermittently on day 1, 4, 7, 10, and 13. […]

MGMT [3] = test: Intratumoral MGMT enzymatic activity in DAOY xenograft tumors; format: in vivo, mice; conditions: 81 mg/kg TMZ for five consecutive days (total 405 mpk), compared with vehicle-treated tumors
[4] = test system: A375 human melanoma cells (high MGMT level); test: Colony formation assay, A375 cells; format: cell-based; conditions: 4-day cycle
Method: as §1

[5] = test system: LOX human melanoma xenograft tumors; test: LOX human melanoma xenograft tumor model; format: in vivo, SCID mice; conditions: higher and lower dose levels (144 and 36 mg/kg total)
Method: as §2, §3, §4

MGMT [6] = test: MGMT Western blot in A375 cells after TMZ treatment; format: cell-based, human; conditions: TMZ 0, 10, 40, 160 μM, 72 hours, and 72 hours plus 72 hours without TMZ
[7] = test system: DAOY human glioma xenograft tumors; test: DAOY human glioma xenograft tumor model; format: in vivo, nude mice; conditions: for tumor regression: after one cycle
Method: as §2, §3
TMZ was administered by intraperitoneal injections with 20% HPβCD (containing 1% DMSO) as vehicle. Mice bearing xenograft tumors of DAOY human glioma cells, a high MGMT level cell line, were treated with one of three different dosing schedules. In a 15-day cycle, under same total dose levels, mice received one of the following TMZ treatments: (i) day 1 through day 15; (ii) day 1 through day 5; or (iii) intermittently on day 1, 4, 7, 10, and 13. For all dosing schedules, three different dose levels (180, 270, and 405 mg/kg total) were used.
FIG. 5A illustrates the mean tumor growth curves of DAOY human glioma xenograft tumors following TMZ treatment for two consecutive 15-day cycles of continuous daily dosing (Day 1-15 (first cycle), Day 16-30 (second cycle)); where the total dose of TMZ administered was 0, 360, 540, or 810 mg per kg (mpk). FIG. 5B illustrates the mean tumor growth curves of DAOY human glioma xenograft tumors following TMZ treatment for two consecutive 15-day cycles of dosing for 5 consecutive days (Day 1-5 (first cycle); Day 16-20 (second cycle)); where the total dose of TMZ administered was 0, 360, 540, or 810 mpk. […]

MGMT [8] = test: MGMT enzymatic activity assay in A375 cells after TMZ treatment; format: cell-based, human; conditions: TMZ 0, 10, 40, and 160 mM
[9] = test system: LOX human melanoma cells (low MGMT level); test: Colony formation assay, LOX cells; format: cell-based
Method: as §1
In the 4-day cycle, illustrated in FIG. 3A, TMZ was administered according to one of two different dosing schedules: (i) continuous daily dosing (Day 1-4); or (ii) single pulse dosing (Day 1); where the total amount of TMZ administered was 0, 16, 31, 62, or 124 μg.
In the 8-day cycle, illustrated in FIG. 3B, TMZ was administered according to one of three different dosing schedules: (i) continuous daily dosing (Day 1-8); (ii) dosing for 2 consecutive days (Day 1-2); or (ii) intermittent dosing for 2 days (Day 1, Day 5); where the total amount of TMZ administered was 0, 31, 62, 124, or 248 μg.

SMILES: Cn1nnc2c(C(N)=O)ncn2c1=O [TMZ, 3,4-dihydro-3-methyl-4-oxoimidazo[5,1-d]-as-tetrazine-8-carboxamide]
- inhibition of colony formation, single pulse dosing versus continuous daily dosing [1]: better inhibition of colony formation than the continuous daily dosing
- efficacy versus equivalent dose levels of continuous daily dosing (Day 1-15) [2]: significantly better efficacy
- intratumoral MGMT enzymatic activity (MGMT [3]): little MGMT activity detected
- inhibition of colony formation, dose dependence ([4]; both dosing schedules, total TMZ 62-497 μg): Dose-dependent inhibition
- inhibition of colony formation, single pulse dosing versus continuous daily dosing ([4]; total TMZ levels of 62, 124, 249, 497 μg): better inhibition of colony formation than continuous daily dosing
- efficacy, 4-day versus 12-day schedule [5]: no statistical difference
- level of MGMT protein (Western blot) (MGMT [6]): dose-dependent reduction in MGMT protein level
- tumor regression ([7]; 81 mg/kg/day, intermittent dosing schedule): tumor regression occurred
- tumor regression ([7]; 54 or 81 mg/kg/day, dosing for 5 consecutive days): tumor regression occurred
- tumor growth inhibition, 5 consecutive days and intermittent 5 days versus continuous daily dosing ([7]; nude mice, i.p., total 360, 540, or 810 mpk over two 15-day cycles): better tumor growth inhibition than the continuous daily dosing schedule
- level of MGMT enzymatic activity after drug removal (MGMT [8]; 72-hour treatment, then 72 hours in medium without TMZ): remained reduced in a dose-dependent manner
- level of MGMT enzymatic activity (MGMT [8]; 72 hours of treatment): dose-dependent reduction of MGMT
- inhibition of colony formation, single pulse dosing versus continuous daily dosing ([9]; 4-day cycle, total TMZ 16-124 μg): better inhibition of colony formation than continuous daily dosing
- inhibition of colony formation, intermittent dosing for 2 days versus dosing for 2 consecutive days ([9]; 8-day cycle, same total TMZ dose): better inhibition of colony formation than dosing for 2 consecutive days
- inhibition of colony formation, intermittent dosing for 2 days versus continuous daily dosing ([9]; 8-day cycle, total TMZ 31-248 μg): better inhibition of colony formation than continuous daily dosing
